Measured values reported in patent publication US20240293565A1 (BEIJING SINOTAU BIO PHARMACEUTICALS TECHNOLOGY, published 2024).
Where a chain is given by its changes, count along the chain named. No constants are given. Whether binding was seen depends on the method and setting. Some binding calls cover weakened binding; strength is not graded here.

By UniProt entry, the sequences of proteins in these tests, tags left out. Where a name states a change or a piece, a line headed by the entry shows the natural chain unless it says otherwise. Chains listed by the source or under a name are the forms on record and can include a tag or linker. Residues count along the entry.
UniProt P21860, residues 20-643: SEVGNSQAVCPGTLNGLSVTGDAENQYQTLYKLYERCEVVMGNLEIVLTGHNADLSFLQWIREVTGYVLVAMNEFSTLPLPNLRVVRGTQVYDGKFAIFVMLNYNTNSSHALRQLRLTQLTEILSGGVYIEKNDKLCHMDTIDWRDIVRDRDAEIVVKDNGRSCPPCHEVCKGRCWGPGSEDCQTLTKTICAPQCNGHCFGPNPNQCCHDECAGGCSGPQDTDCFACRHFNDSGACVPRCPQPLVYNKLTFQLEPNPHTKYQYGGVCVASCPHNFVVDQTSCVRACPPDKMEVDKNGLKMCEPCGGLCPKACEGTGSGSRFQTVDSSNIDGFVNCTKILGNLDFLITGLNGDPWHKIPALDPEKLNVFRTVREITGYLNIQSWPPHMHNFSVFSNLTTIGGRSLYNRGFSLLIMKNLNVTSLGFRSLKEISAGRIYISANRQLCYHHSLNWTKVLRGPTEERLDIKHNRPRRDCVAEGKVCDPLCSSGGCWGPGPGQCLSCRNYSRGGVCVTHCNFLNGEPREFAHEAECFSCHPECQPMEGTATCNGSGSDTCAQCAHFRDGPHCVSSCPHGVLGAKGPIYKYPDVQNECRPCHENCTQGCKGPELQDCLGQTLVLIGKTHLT
Cynomolgus HER3 (G7PIG5, form named): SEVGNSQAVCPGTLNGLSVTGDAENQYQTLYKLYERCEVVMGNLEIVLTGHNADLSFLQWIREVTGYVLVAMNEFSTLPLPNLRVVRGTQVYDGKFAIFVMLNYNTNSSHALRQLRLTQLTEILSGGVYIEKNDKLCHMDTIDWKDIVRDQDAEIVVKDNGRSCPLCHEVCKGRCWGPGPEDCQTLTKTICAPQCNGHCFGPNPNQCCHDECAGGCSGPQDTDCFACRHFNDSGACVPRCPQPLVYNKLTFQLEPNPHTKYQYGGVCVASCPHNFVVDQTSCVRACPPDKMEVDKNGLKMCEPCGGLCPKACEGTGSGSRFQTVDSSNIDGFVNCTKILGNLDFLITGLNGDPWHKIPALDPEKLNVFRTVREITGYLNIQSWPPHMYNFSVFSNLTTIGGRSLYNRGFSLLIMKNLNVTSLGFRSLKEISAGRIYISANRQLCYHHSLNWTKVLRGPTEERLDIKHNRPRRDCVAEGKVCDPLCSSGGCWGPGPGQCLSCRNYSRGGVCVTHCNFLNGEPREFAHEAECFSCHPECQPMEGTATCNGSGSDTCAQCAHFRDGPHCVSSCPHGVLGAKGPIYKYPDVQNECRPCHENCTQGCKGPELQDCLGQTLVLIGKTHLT

Legend:
[1] = molecular target: Human HER3-huFc (human) (UniProt P21860); assay: ELISA on HER3 after 0, 3, 5 cycles of freezing and thawing of the antibody
[2] = molecular target: Human HER3-huFc (human) (UniProt P21860); assay: ELISA on HER3 after incubation of the antibody at pH 3.5 for 0, 2, 4, 6 h
[3] = molecular target: Human HER3-huFc (human) (UniProt P21860); assay: ELISA on HER3 after incubation of the antibody at 40 C for 0, 7, 14 days
[4] = molecular target: Human HER3-huFc (human) (UniProt P21860); assay: ELISA on HER3, chimeric antibody measured in parallel with the freeze-thaw stress test
[5] = molecular target: Human HER3-huFc (human) (UniProt P21860); assay: ELISA on HER3, chimeric antibody measured in parallel with the heat stress test
[6] = molecular target: Human HER3-huFc (human) (UniProt P21860); assay: ELISA on coated antigen
[7] = molecular target: Cynomolgus HER3 (Cynomolgus) (UniProt G7PIG5); assay: ELISA on coated antigen
[8] = molecular target: Human HER3-huFc (human) (UniProt P21860); assay: ELISA on coated Human HER3-huFc, luminescence readout
[9] = molecular target: Human HER3-huFc (human) (UniProt P21860); assay: summary of the ELISA results
[10] = molecular target: Cynomolgus HER3 (Cynomolgus) (UniProt G7PIG5); assay: summary of the ELISA results
[11] = molecular target: Cynomolgus HER3 (Cynomolgus) (UniProt G7PIG5); assay: ELISA on coated cynomolgus HER3, luminescence readout
[12] = molecular target: Human HER3-huFc (human) (UniProt P21860); assay: ELISA on coated human HER3, luminescence readout

Measured: binding

B1: humanized 3F8 Clone 3 (antibody, human IgG1, kappa, V domains shown)
VH: QVQLQESGPGLVKPSETLSLTCTVSGYSITSAYYWNWIRQPFGKGLEWMGYISYDGRNNFNPSLKNRVSISRDTSKNQFSLKLSSVTAADTATYYCARDGDYDYFDYWGQGTTVTVSS
VL: DIQMTQSPSSLSASVGDRVTITCRASQDISNYLNWYQQKPGKAPKLLIYYTSILHSGVPSRFSGSGSGTDYTFTISSLQPEDIATYFCQQGDTLPPTFGGGTKLEIKR
binds: [1] | [2] | [3]

B2: chimeric 3F8 (antibody, human IgG1, V domains shown)
VH: DVQLQESGPGLVKPSQSLSLTCSVTGYSITSAYYWNWIRQFPGDKLEWMGYISYDGRNNFNPSLKNRISITRDTSKNQFFLKLNSVTSGDTATYYCARDGDYDYFDYWGQGTTLTVSS
VL: DIQMTQTTSSLSASLGDRVTISCRASQDISNYLNWYQQKPDGTFKLLIYYTSILHSGVPSRFSGSGSGTDYSLTISNLEQEDIATYFCQQGDTLPPTFGAGTKLELK
notes: also called ch3F8; Ch3F8
binds: [4] | [5]

B3: humanized 3F8 Clone 1 (antibody, human IgG1, kappa, V domains shown)
VH: B1 VH with F42P, M49I, S69T, R72V, T93V
VL: B1 VL
binds: [1] | [2] | [3]

B4: humanized 3F8 Clone 2 (antibody, human IgG1, kappa, V domains shown)
VH: B1 VH with S69T, T93V
VL: B1 VL
binds: [1] | [2] | [3]

B5: murine 3F8 (antibody, V domains shown)
VH: B2 VH
VL: B2 VL
binds: [6] | [7] | [8] | [9] | [10] | [11] | [12]
